Data reported in article PMC9975678.
No constants are given. Whether binding was seen depends on the method and setting. Some results given as binding are weak or reduced against the parent protein; the word gives no strength.

Sequences of proteins named here, by UniProt entry; tags and fusion partners are left off. Residues count along the entry.
UniProt O00629, residues 70-485: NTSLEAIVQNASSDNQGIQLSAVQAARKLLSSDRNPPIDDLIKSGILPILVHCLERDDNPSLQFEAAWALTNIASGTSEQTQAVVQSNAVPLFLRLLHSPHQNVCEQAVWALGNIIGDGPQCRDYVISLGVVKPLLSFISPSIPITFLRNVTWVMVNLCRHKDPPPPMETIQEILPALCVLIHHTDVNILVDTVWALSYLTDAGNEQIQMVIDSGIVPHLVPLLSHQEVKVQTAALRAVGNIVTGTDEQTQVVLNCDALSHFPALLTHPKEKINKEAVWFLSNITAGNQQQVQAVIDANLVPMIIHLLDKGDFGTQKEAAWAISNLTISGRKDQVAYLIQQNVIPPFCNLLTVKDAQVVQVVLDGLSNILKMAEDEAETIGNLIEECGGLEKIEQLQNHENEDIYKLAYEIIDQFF
UniProt Q12888, residues 1665-1686: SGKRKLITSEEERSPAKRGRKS

Target: ARM-repeat domain of human importin-α3 (residues 70–485) (human) (UniProt O00629)
Assay: crystal structure; X-ray, 1.9 Å; purified importin-α3–53BP1 NLS complex (0.58 mM) with 0.71 mM Nup153C in 10 mM Tris–HCl pH 7.5, 150 mM NaCl, 2 mM 2-mercaptoethanol; hanging drop at 20 °C, 0.2 M LiNO3, 25% PEG3350; both purified

binding: binds
Substance: 53BP1 (TP53-binding protein 1) bipartite nuclear localization signal (human 53BP1 residues 1665–1686) (from UniProt Q12888 1665-1686) (peptide)
